Test results as given in PMC4721948.
No constants are given. Whether binding was seen depends on the method and setting. In cells and extracts the contact can be indirect. Some binding calls cover weakened binding; strength is not graded here. One block for each binder: values may come before it.

What was measured:
[1] = target: wild-type human APP overexpressed in N2a cells (human) (UniProt P05067); assay: co-IP; lysates of N2a cells overexpressing APPwt and APPL1wt, treated with MiTMAB (dynamin I and II inhibitor) to block endocytosis; IP with C1/6.1 or APPL1 antibody, immunoblot
[2] = target: mutant APP M596V (APPmv), β-cleavage-incompetent (human) (UniProt P05067); assay: co-IP; lysates of transfected HEK293 cells overexpressing APP (APPwt, APPmv or APP_(AENATA)) and APPL1 (wt or ΔPTB); IP with antibodies against APPL1 or against APP (C1/6.1 or 6E10), immunoblot; 10% of total lysate as input
[3] = target: T1, APPL1 (adaptor protein containing pleckstrin homology domain, phosphotyrosine binding domain and leucine zipper motif), wild type (UniProt Q9UKG1); assay: as above
T1 sequence: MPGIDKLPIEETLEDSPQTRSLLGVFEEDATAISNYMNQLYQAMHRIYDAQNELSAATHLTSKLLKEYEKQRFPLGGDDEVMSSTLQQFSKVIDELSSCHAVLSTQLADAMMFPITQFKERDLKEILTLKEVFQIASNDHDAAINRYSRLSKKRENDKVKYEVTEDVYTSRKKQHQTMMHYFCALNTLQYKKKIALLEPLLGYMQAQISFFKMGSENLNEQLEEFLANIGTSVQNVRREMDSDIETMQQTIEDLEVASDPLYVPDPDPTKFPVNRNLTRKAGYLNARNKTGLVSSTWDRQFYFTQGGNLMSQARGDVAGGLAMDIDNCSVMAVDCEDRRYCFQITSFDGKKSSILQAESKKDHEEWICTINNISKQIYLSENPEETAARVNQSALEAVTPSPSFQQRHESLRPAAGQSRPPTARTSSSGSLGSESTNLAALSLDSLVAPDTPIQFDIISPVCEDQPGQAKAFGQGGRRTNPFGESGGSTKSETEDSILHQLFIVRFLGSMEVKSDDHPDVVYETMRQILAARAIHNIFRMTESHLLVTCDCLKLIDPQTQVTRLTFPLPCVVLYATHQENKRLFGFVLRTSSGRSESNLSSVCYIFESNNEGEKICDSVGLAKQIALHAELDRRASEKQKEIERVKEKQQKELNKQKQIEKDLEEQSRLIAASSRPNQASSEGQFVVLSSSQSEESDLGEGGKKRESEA

binding [1]: binds
B1: FE65 in N2a cells (protein, UniProt Q9QXJ1 1-710)
chain: MSVPSSLSQSAINANSHGGPALSFPLPLHAAHNQLLNAKLQATAVVPKDLRSAMGEGSVPEPGPANAKWLKEGQNQLRRAATAHRDQNRNVTLTLAEEASQEAETAPLGPKGLMHLYSELELSAHNAANRGLHGSALIINTQEQGPDEGEEKAAGEAEEDDEDEEEEEEEEDLSSPPGLPEPLENVEVPSGPQALTDGPREHSKSASLLFGMRNSAASDEDSSWATLSQGSPSYGSPEDTDSFWNPNAFETDSDLPAGWMRVQDTSGTYYWHIPTGTTQWEPPGRASPSQGSSPQEESQLTWTGFAHQEGFEEGEFWKDEPSEEAPMELGLKDPEEATLSFPAQSLSPEPVPQEEEKLSQRNANPGIKCFAVRSLGWVEMTEEELAPGRSSVAVNNCIRQLSYHKNNLHDPMAGGWGEGKDLLLQLEDETLKLVEPQNQTLLHAQPIVSIRVWGVGRDSGSNRDFAYVARDKLTQMLKCHVFRCEAPAKNIATSLHEICSKIMSERRNARCLVNGLSLDHSKLVDVPFQVEFPAPKNELVQKFQVYYLGNVPVAKPVGVDVINGALESVLSSSSREQWTPSHVSVAPATLTILHQQTEAVLGECRVRFLSFLAVGRDVHTFAFIMAAGPASFCCHMFWCEPNAASLSEAVQAACMLRYQKCLDARSQTSTSCLPAPPAESVARRVGWTVRRGVQSLWGSLKPKRLGSQTP

binding [2]: no binding
B2: APPL1 (adaptor protein containing pleckstrin homology domain, phosphotyrosine binding domain and leucine zipper motif), wild type (protein, UniProt Q9UKG1 1-709)
chain: MPGIDKLPIEETLEDSPQTRSLLGVFEEDATAISNYMNQLYQAMHRIYDAQNELSAATHLTSKLLKEYEKQRFPLGGDDEVMSSTLQQFSKVIDELSSCHAVLSTQLADAMMFPITQFKERDLKEILTLKEVFQIASNDHDAAINRYSRLSKKRENDKVKYEVTEDVYTSRKKQHQTMMHYFCALNTLQYKKKIALLEPLLGYMQAQISFFKMGSENLNEQLEEFLANIGTSVQNVRREMDSDIETMQQTIEDLEVASDPLYVPDPDPTKFPVNRNLTRKAGYLNARNKTGLVSSTWDRQFYFTQGGNLMSQARGDVAGGLAMDIDNCSVMAVDCEDRRYCFQITSFDGKKSSILQAESKKDHEEWICTINNISKQIYLSENPEETAARVNQSALEAVTPSPSFQQRHESLRPAAGQSRPPTARTSSSGSLGSESTNLAALSLDSLVAPDTPIQFDIISPVCEDQPGQAKAFGQGGRRTNPFGESGGSTKSETEDSILHQLFIVRFLGSMEVKSDDHPDVVYETMRQILAARAIHNIFRMTESHLLVTCDCLKLIDPQTQVTRLTFPLPCVVLYATHQENKRLFGFVLRTSSGRSESNLSSVCYIFESNNEGEKICDSVGLAKQIALHAELDRRASEKQKEIERVKEKQQKELNKQKQIEKDLEEQSRLIAASSRPNQASSEGQFVVLSSSQSEESDLGEGGKKRESEA

binding [3]: no binding
B3: FE65, an adaptor protein containing the PTB domain (protein, UniProt O00213 1-710)
chain: MSVPSSLSQSAINANSHGGPALSLPLPLHAAHNQLLNAKLQATAVGPKDLRSAMGEGGGPEPGPANAKWLKEGQNQLRRAATAHRDQNRNVTLTLAEEASQEPEMAPLGPKGLIHLYSELELSAHNAANRGLRGPGLIISTQEQGPDEGEEKAAGEAEEEEEDDDDEEEEEDLSSPPGLPEPLESVEAPPRPQALTDGPREHSKSASLLFGMRNSAASDEDSSWATLSQGSPSYGSPEDTDSFWNPNAFETDSDLPAGWMRVQDTSGTYYWHIPTGTTQWEPPGRASPSQGSSPQEESQLTWTGFAHGEGFEDGEFWKDEPSDEAPMELGLKEPEEGTLTFPAQSLSPEPLPQEEEKLPPRNTNPGIKCFAVRSLGWVEMTEEELAPGRSSVAVNNCIRQLSYHKNNLHDPMSGGWGEGKDLLLQLEDETLKLVEPQSQALLHAQPIISIRVWGVGRDSGRERDFAYVARDKLTQMLKCHVFRCEAPAKNIATSLHEICSKIMAERRNARCLVNGLSLDHSKLVDVPFQVEFPAPKNELVQKFQVYYLGNVPVAKPVGVDVINGALESVLSSSSREQWTPSHVSVAPATLTILHQQTEAVLGECRVRFLSFLAVGRDVHTFAFIMAAGPASFCCHMFWCEPNAASLSEAVQAACMLRYQKCLDARSQASTSCLPAPPAESVARRVGWTVRRGVQSLWGSLKPKRLGAHTP
